From the supplement of paper PMC12889115
The other results are listed elsewhere or left out. These are raw signals, not scaled to a control.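 Primary screen: polymyxin B was added at a level permeabilizing Salmonella outer membranes while sparing inner membranes. DMSO wells, both with and without polymyxin B, established maximum growth. Plate-to-plate variation meant each plate was ranked on its own, and the lowest-OD600 compounds were selected as hits.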

Test system: Salmonella enterica serovar Typhimurium SL1344
Test: bacterial growth OD600 after 18 h with compound and polymyxin B; higher = more bacterial growth (less inhibition)
Details: 50 µM, Mueller-Hinton broth

Structure (SMILES) | bacterial growth OD600 (polymyxin B 0.75 µg/mL) | bacterial growth OD600 (polymyxin B 1 µg/mL)
CN(C)CCN1C(=O)NC(CCc2ccccc2)(C2CCN(C(=O)Cc3ccsc3)CC2)C1=O (stereo not given) | 0.845 | 
CCOC(=O)C1(Cc2ccccc2F)CCCN(C(=O)COC)C1 (stereo not given) |  | 0.911
COc1ccc(CNC(=O)CCC2CCCN(Cc3cccc4cccnc34)C2)c(OC)c1 (stereo not given) |  | 1.17
Cc1nc2ccccc2n1Cc1cc(C(=O)NCCN2CCCCC2)no1 | 0.839 | 
COCCn1cc(C(=O)NCC2(c3ccccc3)CCCC2)c(=O)c(C(=O)N2CCC(C)CC2)c1 | 0.89 | 
CC(C)CCN(C)C(=O)C1CCN(C2CCN(c3nc4ccccc4o3)CC2)CC1 | 0.647 | 
COc1ccc(NC(=O)CCC2CCCN(C(=O)c3cc(C)nn3C)C2)cc1Cl (stereo not given) |  | 0.89
O=C(CCC1CCN(C(=O)[C@@H]2C[C@@H]3C=C[C@H]2C3)CC1)Nc1ccc(F)c(Cl)c1 |  | 0.891
OCCC1CN(Cc2ccc(F)c(F)c2)CCN1Cc1ccccc1F (stereo not given) |  | 0.952
COCCNC(=O)c1cccc(OC2CCN(Cc3ccc(Cl)s3)CC2)c1 | 0.558 | 
CCOC(=O)N1CCC(NCc2cccc(OCC(O)CN3CCCCCC3)c2)CC1 (stereo not given) |  | 0.863
CCOC(=O)C1(CCCc2ccccc2)CCCN(C(=O)C2CCC2)C1 (stereo not given) |  | 0.377
COCc1ccc(C(=O)NCc2c(C)ncc3c2CCN(C(=O)Cc2c(C)noc2C)C3)o1 | 0.789 | 
CN(C)S(=O)(=O)N1CCC(Oc2cccc(C(=O)NCc3ccsc3)c2)CC1 |  | 0.898
O=C1CCC(CCC(=O)N2CCCC2)(Cc2ccc(Cl)cc2)N1 (stereo not given) | 0.835 | 
CCOC(=O)C1(CCCc2ccccc2)CCCN(C(=O)Cn2cccn2)C1 (stereo not given) |  | 1.08
CCOC(=O)C1(Cc2ccccc2)CCN(Cc2c(C)nn(C)c2Cl)CC1 | 0.926 | 
Cc1c(CN2CCC(C3CCN(Cc4ccc(Cl)cc4)C3)CC2)cnn1C (stereo not given) |  | 0.974
CCC(=O)N1CCC2(CCCN(Cc3cc(OC)ccc3F)C2=O)C1 (stereo not given) |  | 0.99
Cc1cc(CN2CC[C@@H](N3CCCCCC3)[C@H](O)C2)oc1C |  | 1.27
O=C1CCC(CCC(=O)N2CCC(Oc3ccccc3F)CC2)(Cc2ccccc2)N1 (stereo not given) | 0.994 | 
CCN(CC1CCN(CCc2ccccc2C)CC1)C(=O)CCc1scnc1C |  | 1.25
CN(Cc1ccc(F)cc1)Cc1cnc(S(C)(=O)=O)n1CCCc1ccccc1 |  | 0.01
O=C(C1CCC1)N1CCC(C2CCN(Cc3ccc(Cl)cc3)C2)CC1 (stereo not given) | 0.832 | 
C1CC2CN(c3nc4nonc4nc3N3CCOCC3)CCN2C1 (stereo not given) | 0.813 | 
CCOC(=O)N1CCN(C(=O)Cn2nnnc2CN2CCCCCC2)CC1 |  | 0.909
O=C(Nc1cc(C(=O)N2CCC[C@H]2CO)c2c(c1)ncn2C1CCCC1)c1ccccc1 | 0.83 | 
COC(=O)CCCC(=O)N1CCOC(CC2CCCCC2)C1 (stereo not given) | 0.98 | 
Cc1cccc(C)c1Oc1ncccc1CNC(=O)c1cscn1 |  | 0.893
O=S(=O)(Cc1ccccc1)NCc1cccnc1Oc1ccccc1 |  | 0.868

Some of these compounds in order of count of non-hydrogen atoms, falling:
Structure (SMILES) | bacterial growth OD600 (polymyxin B 0.75 µg/mL) | bacterial growth OD600 (polymyxin B 1 µg/mL)
CN(Cc1ccc(F)cc1)Cc1cnc(S(C)(=O)=O)n1CCCc1ccccc1 |  | 0.01
OCCC1CN(Cc2ccc(F)c(F)c2)CCN1Cc1ccccc1F (stereo not given) |  | 0.952
Cc1cccc(C)c1Oc1ncccc1CNC(=O)c1cscn1 |  | 0.893
